The list shows a part of the results. Further columns of the screen follow, without active or inactive calls.

The test can be described thus: cytotoxicity in NIH3T3 fibroblasts, dose response, cytotoxicity control, cell-based, plate reader, cherry-pick, two tests (AID 651900). The settings on record: test 2 concentration series, at 26 µM.
For `Cc1ccc(S(=O)(=O)N(C)C)cc1NC(=O)CSc1nncs1`, the activity is -1.48%.
In the case of `COc1ccc(Cc2c(-c3ccc(OC)c(OC)c3)nc3ccc(C)cn23)c(C)c1` it was -1.19%; in that of `O=C(Nc1cccnc1)C1CCN(S(=O)(=O)c2ccc(Cl)cc2)CC1`, -2.19%; in that of `CCCCN1C(=O)c2ccc(C(=O)Nc3cccnc3)cc2C1=O`, -1.08%.
For `CCC(Sc1nc2ccsc2c(=O)n1Cc1ccc(C(=O)O)cc1)C(=O)Nc1cccc(OC)c1` (stereo not drawn), the activity is -1.02%.
Next, `CC(=O)c1ccc(N2CCN(C(=O)Cc3ccccc3)CC2)c(F)c1`: 2.1%; `O=C(Nc1cccnc1)c1ccc(Cl)c(Cl)c1`: 1.54%.
Next, `O=C(NC1CCCc2c1cnn2-c1cc(F)cc(F)c1)c1ccc[n+]([O-])c1` (stereo not drawn): -1.71%; `CC(=O)c1ccc(N2CCN(C(=O)Cc3cccs3)CC2)cc1`: -0.012%; `C=CCn1c(COc2ccccc2F)nnc1SCCN1C(=O)c2ccccc2C1=O`: 0.412%.
In the case of `CC1CCCN(c2ccc(C(=O)Nc3cccnc3)cc2[N+](=O)[O-])C1` (stereo not drawn) it was -8.58%; in that of `C#CCSc1nnc(-c2sc(-c3ccccc3)nc2C)n1C`, 2.88%; in that of `CCc1c(C(=O)NCCc2ccc(OC)c(OC)c2)[nH]c(C)c1C(C)=O`, -5.77%.
As for `COc1ccc(NC2c3ccccc3C(=O)N2c2cccnc2)cc1Cl` (stereo not drawn), the activity was -2.74%.
With `Cc1cc2c(c(=O)n1Cc1cccnc1)C(c1cccs1)C(C#N)=C(N)O2` (stereo not drawn), the activity came out at 7.76%.
Next, `COC(=O)c1sc(N)c(C(=O)OC)c1CSc1nnc(-c2ccccc2Cl)n1C`: -7.6%.
In the case of `CCc1nn(CCCC(=O)N(C)Cc2ccccc2)c(=O)c2cc3occc3n12` it was -13.4%; in that of `CC(=O)c1ccc(N2CCN(S(=O)(=O)c3c(C(=O)N4CCCC4)c(C)n(C)c3C)CC2)cc1`, 12.9%.

These data come from PubChem BioAssay AID651900 (Broad Institute, 2012).
